Results: the supplement of paper PMC10849652
Some of the results follow.

The chains behind the UniProt entries cited, without tags or fusion partners. Where a name states a change or a piece, a line headed by the entry shows the natural chain unless it says otherwise.
UniProt P54105: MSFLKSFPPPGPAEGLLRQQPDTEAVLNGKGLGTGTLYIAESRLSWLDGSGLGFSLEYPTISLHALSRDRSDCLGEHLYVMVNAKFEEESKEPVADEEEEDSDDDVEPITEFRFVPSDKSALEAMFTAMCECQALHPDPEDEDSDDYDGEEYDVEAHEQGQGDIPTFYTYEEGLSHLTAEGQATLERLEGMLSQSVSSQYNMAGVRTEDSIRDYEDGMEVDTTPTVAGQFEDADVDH
UniProt Q8N2M8: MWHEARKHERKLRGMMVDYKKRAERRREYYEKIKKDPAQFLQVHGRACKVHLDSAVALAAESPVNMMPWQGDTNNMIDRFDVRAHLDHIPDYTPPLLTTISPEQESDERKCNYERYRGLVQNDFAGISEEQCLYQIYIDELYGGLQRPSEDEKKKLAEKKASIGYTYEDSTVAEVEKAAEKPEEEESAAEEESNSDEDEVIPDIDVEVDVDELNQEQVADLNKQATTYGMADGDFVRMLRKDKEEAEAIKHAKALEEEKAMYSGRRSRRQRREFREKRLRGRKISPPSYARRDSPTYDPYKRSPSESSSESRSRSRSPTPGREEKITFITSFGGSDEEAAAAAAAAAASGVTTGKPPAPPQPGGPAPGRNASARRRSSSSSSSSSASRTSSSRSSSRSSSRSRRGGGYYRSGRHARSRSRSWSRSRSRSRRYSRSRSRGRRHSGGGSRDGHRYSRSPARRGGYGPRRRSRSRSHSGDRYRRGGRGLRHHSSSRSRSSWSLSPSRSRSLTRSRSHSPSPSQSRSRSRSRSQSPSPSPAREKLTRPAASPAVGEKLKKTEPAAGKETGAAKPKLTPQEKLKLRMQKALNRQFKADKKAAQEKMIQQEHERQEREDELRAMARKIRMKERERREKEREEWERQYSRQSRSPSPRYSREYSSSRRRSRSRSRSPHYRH
UniProt Q96S66: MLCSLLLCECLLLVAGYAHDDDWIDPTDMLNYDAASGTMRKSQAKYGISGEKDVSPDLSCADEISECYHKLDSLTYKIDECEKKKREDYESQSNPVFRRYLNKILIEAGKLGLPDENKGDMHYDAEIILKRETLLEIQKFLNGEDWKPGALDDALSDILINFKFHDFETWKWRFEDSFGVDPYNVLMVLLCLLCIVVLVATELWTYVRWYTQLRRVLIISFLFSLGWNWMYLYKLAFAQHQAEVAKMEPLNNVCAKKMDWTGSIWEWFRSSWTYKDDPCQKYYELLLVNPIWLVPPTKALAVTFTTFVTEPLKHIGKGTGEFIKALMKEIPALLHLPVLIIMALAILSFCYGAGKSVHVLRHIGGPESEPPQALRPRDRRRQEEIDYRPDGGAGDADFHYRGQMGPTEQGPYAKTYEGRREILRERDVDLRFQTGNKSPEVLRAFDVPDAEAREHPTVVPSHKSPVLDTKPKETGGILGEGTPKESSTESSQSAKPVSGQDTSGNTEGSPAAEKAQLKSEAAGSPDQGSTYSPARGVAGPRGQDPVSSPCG
UniProt Q9NY35: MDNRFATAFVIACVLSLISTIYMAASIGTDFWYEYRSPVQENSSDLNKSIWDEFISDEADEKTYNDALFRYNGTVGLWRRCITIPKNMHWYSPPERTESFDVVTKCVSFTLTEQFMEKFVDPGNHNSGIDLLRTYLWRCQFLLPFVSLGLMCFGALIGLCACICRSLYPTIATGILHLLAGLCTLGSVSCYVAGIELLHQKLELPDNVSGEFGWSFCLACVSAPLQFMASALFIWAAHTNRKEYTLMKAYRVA
UniProt Q96AJ1: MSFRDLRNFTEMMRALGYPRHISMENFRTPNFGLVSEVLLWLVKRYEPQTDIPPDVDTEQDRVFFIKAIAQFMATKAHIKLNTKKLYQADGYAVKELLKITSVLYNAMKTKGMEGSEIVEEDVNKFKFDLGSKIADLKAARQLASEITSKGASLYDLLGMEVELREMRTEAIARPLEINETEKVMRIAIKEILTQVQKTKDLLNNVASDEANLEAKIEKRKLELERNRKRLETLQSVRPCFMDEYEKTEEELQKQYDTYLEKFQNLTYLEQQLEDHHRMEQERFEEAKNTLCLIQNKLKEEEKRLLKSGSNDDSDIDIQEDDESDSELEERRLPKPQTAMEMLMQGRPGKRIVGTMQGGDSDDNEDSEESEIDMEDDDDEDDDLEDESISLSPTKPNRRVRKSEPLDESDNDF
UniProt Q96NY7: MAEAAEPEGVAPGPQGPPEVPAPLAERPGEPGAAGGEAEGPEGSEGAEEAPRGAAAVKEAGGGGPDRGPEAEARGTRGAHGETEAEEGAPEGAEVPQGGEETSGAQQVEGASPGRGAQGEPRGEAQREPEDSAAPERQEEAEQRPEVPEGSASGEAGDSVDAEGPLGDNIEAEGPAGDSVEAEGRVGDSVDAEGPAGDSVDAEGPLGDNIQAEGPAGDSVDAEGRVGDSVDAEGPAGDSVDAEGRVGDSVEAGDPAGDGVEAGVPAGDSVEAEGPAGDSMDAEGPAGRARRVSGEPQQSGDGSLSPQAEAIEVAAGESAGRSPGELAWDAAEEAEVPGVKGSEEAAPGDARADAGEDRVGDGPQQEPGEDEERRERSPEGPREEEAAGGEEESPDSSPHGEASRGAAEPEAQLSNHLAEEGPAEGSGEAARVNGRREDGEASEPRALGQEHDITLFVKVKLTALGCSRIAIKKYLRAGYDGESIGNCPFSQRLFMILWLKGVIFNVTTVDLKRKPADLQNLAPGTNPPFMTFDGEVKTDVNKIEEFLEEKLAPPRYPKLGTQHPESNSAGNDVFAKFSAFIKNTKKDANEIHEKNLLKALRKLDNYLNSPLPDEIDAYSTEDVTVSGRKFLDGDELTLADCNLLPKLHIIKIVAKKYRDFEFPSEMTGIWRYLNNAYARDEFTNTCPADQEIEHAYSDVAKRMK
UniProt Q96KA5: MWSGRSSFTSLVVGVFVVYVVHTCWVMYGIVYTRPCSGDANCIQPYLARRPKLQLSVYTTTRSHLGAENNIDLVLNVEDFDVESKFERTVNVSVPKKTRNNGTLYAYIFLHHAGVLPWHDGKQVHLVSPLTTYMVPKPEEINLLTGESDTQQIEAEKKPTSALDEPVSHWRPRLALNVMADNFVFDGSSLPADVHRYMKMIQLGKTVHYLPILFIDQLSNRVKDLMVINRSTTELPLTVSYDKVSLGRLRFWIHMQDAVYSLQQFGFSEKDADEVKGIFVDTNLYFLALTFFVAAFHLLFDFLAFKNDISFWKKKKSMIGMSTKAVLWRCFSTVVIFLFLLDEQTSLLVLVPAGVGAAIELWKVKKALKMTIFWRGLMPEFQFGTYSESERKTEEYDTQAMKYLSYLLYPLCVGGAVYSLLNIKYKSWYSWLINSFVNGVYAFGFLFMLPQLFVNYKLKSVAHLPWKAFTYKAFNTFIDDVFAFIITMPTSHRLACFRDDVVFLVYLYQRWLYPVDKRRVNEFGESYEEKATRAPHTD
UniProt P09496: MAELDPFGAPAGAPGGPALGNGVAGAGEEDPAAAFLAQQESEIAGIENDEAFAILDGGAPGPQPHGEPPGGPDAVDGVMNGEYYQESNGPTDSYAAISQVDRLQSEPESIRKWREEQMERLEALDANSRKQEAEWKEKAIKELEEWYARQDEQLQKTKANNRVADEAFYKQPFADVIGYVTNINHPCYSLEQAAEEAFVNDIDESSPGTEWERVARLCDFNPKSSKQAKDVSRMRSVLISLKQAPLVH
UniProt P56749: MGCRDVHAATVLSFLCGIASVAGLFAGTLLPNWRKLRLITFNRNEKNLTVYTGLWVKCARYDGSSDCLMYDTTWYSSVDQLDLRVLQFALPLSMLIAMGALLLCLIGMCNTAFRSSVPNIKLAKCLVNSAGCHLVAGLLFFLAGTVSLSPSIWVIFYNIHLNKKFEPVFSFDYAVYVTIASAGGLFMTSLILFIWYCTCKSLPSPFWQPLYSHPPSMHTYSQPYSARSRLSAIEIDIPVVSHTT
UniProt P09497: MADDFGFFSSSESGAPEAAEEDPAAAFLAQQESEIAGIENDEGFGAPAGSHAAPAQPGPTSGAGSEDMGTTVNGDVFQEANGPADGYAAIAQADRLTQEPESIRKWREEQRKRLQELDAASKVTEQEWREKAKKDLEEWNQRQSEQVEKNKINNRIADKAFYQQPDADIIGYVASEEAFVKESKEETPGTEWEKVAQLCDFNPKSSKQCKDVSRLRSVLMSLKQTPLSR
UniProt Q9UBR5: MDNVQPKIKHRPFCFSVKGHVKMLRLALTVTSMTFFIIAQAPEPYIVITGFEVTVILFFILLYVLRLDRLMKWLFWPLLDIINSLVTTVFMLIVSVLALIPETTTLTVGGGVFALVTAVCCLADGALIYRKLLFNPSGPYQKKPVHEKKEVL
UniProt P51790: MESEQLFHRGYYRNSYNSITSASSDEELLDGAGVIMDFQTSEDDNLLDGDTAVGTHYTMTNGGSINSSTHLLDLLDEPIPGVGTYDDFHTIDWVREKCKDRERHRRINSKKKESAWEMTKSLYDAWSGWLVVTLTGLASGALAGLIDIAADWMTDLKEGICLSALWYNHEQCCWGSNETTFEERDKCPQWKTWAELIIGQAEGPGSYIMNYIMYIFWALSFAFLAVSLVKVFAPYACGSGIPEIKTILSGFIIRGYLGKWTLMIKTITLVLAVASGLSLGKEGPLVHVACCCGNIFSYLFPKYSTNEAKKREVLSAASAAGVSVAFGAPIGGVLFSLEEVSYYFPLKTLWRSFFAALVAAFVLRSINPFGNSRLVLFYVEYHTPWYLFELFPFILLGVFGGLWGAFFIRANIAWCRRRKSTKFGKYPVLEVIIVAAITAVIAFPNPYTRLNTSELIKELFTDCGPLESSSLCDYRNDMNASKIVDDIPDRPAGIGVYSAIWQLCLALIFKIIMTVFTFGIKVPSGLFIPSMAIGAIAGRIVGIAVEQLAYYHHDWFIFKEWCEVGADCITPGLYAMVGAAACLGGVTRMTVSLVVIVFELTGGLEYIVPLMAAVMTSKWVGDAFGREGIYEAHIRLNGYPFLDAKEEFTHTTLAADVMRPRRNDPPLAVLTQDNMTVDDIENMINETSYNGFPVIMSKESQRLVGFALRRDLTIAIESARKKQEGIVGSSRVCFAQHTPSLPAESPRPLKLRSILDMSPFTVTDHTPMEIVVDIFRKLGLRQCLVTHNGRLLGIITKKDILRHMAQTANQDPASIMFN
UniProt Q86X95: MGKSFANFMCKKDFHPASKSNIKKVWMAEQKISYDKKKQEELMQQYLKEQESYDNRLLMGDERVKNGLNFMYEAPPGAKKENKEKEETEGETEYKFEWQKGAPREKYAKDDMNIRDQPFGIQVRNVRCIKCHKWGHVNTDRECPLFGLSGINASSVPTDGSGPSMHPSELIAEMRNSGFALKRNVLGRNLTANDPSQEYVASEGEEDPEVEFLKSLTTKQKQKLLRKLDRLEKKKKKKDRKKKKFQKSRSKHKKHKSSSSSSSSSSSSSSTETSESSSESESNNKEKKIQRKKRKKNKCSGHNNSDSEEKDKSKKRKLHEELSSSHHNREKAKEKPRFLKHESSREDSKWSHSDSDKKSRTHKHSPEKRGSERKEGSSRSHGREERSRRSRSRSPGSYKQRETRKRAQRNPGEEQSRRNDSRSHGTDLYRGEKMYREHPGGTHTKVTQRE
UniProt Q9Y696: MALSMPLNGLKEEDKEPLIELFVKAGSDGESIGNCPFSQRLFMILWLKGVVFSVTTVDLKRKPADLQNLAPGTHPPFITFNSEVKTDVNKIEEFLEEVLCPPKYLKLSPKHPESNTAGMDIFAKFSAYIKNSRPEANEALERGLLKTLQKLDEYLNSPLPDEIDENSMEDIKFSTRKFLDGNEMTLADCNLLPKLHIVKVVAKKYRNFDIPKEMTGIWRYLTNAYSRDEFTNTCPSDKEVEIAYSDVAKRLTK
UniProt Q9H078: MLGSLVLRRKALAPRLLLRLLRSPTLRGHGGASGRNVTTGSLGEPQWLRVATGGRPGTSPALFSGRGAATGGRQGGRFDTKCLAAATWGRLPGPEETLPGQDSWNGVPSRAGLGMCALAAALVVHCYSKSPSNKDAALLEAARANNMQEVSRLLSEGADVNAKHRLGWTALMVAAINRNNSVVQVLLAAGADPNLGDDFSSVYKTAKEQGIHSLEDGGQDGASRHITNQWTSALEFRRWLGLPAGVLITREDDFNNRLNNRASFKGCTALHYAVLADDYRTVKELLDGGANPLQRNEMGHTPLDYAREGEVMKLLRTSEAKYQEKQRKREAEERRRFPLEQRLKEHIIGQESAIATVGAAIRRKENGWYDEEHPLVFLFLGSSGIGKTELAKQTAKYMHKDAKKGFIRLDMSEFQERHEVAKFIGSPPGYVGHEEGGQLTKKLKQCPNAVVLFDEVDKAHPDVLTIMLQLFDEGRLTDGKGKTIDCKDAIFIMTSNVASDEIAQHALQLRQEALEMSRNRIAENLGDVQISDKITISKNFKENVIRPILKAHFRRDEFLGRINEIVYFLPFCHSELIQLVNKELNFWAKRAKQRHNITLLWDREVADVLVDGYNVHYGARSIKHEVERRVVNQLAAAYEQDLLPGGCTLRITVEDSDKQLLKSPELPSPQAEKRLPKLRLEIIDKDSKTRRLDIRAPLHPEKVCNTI

compound: C[C@H](Nc1ncnc2nc[nH]c12)c1cc2cccc(Cl)c2c(=O)n1-c1ccccc1 [duvelisib]; experiment: log2 fold change, soluble protein after heating vs DMSO (PISA); higher = thermal stabilisation; K562 lysate, 10 uM; active = over 0.2 and 3.5 SD of the protein, either way, in both replicates (recomputed)
Method in brief: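 A 30 min treatment with 10 μM compound was applied to crude K562 extract at 1 mg/mL protein in PBS pH 7.4 with 1 mM MgCl2. Heating for 3 min spanned 48°C-58°C, after which aliquots were pooled, adjusted to 0.5% NP-40 at 4°C and spun at 21,000xg for 90 min. TMTpro 16plex LC-MS/MS of the supernatant, with channel sums equalised, gave values recorded as log-two fold change in thermal stability against solvent controls, from duplicates.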

log2 fold change, inactive:
CLNS1A (UniProt P54105) -0.003
CLYBL (UniProt Q8N0X4) 0.084
CLASRP (UniProt Q8N2M8) 0.028
CHTF18 (UniProt Q8WVB6) 0.024
CLCC1 (UniProt Q96S66) -0.021
CLGN (UniProt O14967) 0.028
CLDND1 (UniProt Q9NY35) 0.07
CLUAP1 (UniProt Q96AJ1) 0.103
CLIC6 (UniProt Q96NY7) -0.026
CLPTM1L (UniProt Q96KA5) -0.049
CLTA (UniProt P09496) 0.019
CLDN12 (UniProt P56749) -0.024
CLUH (UniProt O75153) 0.147
CLK3 (UniProt P49761) 0.083
CLTB isoform 2 (UniProt P09497) -0.02
CKLF (UniProt Q9UBR5) 0.017
CLCN3 (UniProt P51790) -0.017
CIR1 (UniProt Q86X95) -0.1
CLSPN (UniProt Q9HAW4) -0.004
CLPX (UniProt O76031) 0.026
CLCN3 isoform 2 (UniProt P51790) 0.034
CLIC4 (UniProt Q9Y696) 0.013
CLPB isoform 2 (UniProt Q9H078) -0.015

A section taken from the entries so far, as a working copy:
log2 fold change, inactive:
CLK3 (UniProt P49761) 0.083
CLTB isoform 2 (UniProt P09497) -0.02
